From publication PMC3777878
Results are given in words; binding and its absence hold for the method and conditions named. Binding seen in cells or lysates may run through a third protein. A result given as binding can be weak or reduced; the word gives no strength.

The chains behind the UniProt entries cited, without tags or fusion partners. Where a name states a change or a piece, a line headed by the entry shows the natural chain unless it says otherwise.
UniProt Q62083: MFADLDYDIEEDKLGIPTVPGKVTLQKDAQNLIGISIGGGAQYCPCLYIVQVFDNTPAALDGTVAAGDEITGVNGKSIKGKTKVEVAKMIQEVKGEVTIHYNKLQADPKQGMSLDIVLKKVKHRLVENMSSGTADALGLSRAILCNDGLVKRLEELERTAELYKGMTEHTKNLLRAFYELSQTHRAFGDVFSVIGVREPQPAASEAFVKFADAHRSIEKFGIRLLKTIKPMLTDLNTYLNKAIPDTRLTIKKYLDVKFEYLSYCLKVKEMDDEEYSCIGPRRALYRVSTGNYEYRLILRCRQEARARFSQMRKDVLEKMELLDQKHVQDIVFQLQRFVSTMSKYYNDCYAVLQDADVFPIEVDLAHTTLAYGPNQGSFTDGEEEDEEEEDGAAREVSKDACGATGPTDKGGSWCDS
UniProt Q8VI51: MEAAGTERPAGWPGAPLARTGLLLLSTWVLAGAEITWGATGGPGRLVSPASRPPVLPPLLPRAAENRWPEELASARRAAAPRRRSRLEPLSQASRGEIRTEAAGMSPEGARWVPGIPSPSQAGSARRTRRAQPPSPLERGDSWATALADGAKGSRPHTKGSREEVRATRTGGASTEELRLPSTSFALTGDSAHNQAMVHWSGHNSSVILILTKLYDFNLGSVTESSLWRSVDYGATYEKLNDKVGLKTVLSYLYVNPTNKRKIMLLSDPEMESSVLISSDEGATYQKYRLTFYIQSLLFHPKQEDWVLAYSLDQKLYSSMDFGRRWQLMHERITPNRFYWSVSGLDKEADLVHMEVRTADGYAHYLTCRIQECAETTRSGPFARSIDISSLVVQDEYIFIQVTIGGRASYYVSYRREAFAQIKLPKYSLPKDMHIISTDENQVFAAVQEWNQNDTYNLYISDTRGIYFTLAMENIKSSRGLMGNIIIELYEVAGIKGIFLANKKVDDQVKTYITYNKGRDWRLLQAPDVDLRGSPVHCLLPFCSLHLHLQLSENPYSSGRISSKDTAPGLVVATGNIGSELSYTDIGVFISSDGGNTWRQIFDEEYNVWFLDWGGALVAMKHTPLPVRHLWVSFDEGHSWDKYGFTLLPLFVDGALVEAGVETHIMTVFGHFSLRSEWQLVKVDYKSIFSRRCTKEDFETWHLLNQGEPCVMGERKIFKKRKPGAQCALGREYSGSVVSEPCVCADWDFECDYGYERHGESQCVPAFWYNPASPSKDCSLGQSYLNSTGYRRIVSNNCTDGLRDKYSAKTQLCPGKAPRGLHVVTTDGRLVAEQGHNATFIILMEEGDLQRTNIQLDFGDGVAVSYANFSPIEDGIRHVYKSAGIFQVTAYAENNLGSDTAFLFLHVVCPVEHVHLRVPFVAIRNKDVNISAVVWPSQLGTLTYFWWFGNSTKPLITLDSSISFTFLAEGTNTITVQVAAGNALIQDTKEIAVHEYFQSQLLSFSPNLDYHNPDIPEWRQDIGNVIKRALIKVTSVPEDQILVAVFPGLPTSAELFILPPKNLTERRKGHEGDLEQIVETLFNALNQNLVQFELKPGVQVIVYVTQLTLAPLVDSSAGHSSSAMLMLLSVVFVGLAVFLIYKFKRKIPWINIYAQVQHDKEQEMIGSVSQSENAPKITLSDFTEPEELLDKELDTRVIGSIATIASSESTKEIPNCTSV

Target: recombinant GST-PICK1 fusion protein (UniProt Q62083)
Assay: pull-down; lysate of HEK293 cells expressing SORCS3 mixed with 15 µg GST-PICK1 (or 10 µg GST), overnight at 4°C; glutathione sepharose beads 5 h; washed in lysis buffer with 0.4 M NaCl without Triton X-100; only the target purified

binding: binds
Substance: SORCS3 (HEK293 cells stably expressing SORCS3) (from UniProt Q8VI51) (receptor)
